Data as given in PubChem BioAssay AID1508597 (Cure First, 2020).
Shown is a random part of the about 2,100 reagents, in one setting of the screen. 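Calls flag viability under 80% in either arm, not effects specific to rucaparib; the reference for percent is not stated.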 The record does not give: the 100% reference.

Test: 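Genes whose silencing sensitises or protects ovarian cancer cells against rucaparib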 (primary screen)
Cell system: human ovarian carcinoma lines grown from tumours: OCI-P5x (papillary serous) and OCI-C5x (clear cell)
Knock-down reagent: siRNA pool against human genes, 1.25 pmol siRNA per well
Duration: 72 h or 96 h, depending on the cell culture
Conditions: rucaparib 20 µM (about IC30) or vehicle, present until read-out
Rucaparib or vehicle: Rucaparib
Cell line: OCI-P5x (serous)
Detection: 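ATP luminescence measured at 72 or 96 h according to the culture, then normalised and expressed as percent viability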
Reading the numbers: viability, normalised: higher = more viable cells remaining
Active means: 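a well counts as a hit if its normalised viability is under 80 percent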
Calls: active = viability under 80%; inactive = viability 80% or more

The first 2 entries as a preview:
{"Gene": "NOTCH3 (GeneID 4854)", "technical replicate": "1", "viability, normalised (%)": 76.6, "call": "active"}
{"Gene": "NOTCH3 (GeneID 4854)", "technical replicate": "2", "viability, normalised (%)": 79.9, "call": "active"}

The listing, repeating the preview:
{"Gene": "NOTCH3 (GeneID 4854)", "technical replicate": "1", "viability, normalised (%)": 76.6, "call": "active"}
{"Gene": "NOTCH3 (GeneID 4854)", "technical replicate": "2", "viability, normalised (%)": 79.9, "call": "active"}
{"Gene": "NOTCH3 (GeneID 4854)", "technical replicate": "3", "viability, normalised (%)": 74.8, "call": "active"}
{"Gene": "AKT2 (GeneID 208)", "technical replicate": "1", "viability, normalised (%)": 92.8, "call": "inactive"}
{"Gene": "AKT2 (GeneID 208)", "technical replicate": "2", "viability, normalised (%)": 97.1, "call": "inactive"}
{"Gene": "AKT2 (GeneID 208)", "technical replicate": "3", "viability, normalised (%)": 86.4, "call": "inactive"}
{"Gene": "SSB (GeneID 6741)", "technical replicate": "1", "viability, normalised (%)": 46.8, "call": "active"}
{"Gene": "SSB (GeneID 6741)", "technical replicate": "2", "viability, normalised (%)": 58.8, "call": "active"}
{"Gene": "SSB (GeneID 6741)", "technical replicate": "3", "viability, normalised (%)": 52.5, "call": "active"}
{"Gene": "PRKD2 (GeneID 25865)", "technical replicate": "1", "viability, normalised (%)": 71.4, "call": "active"}
{"Gene": "PRKD2 (GeneID 25865)", "technical replicate": "2", "viability, normalised (%)": 76.1, "call": "active"}
{"Gene": "PRKD2 (GeneID 25865)", "technical replicate": "3", "viability, normalised (%)": 95.9, "call": "inactive"}
{"Gene": "HDAC5 (GeneID 10014)", "technical replicate": "1", "viability, normalised (%)": 75, "call": "active"}
{"Gene": "HDAC5 (GeneID 10014)", "technical replicate": "2", "viability, normalised (%)": 62.8, "call": "active"}
{"Gene": "HDAC5 (GeneID 10014)", "technical replicate": "3", "viability, normalised (%)": 66.2, "call": "active"}
{"Gene": "MST1R (GeneID 4486)", "technical replicate": "1", "viability, normalised (%)": 83.9, "call": "inactive"}
{"Gene": "MST1R (GeneID 4486)", "technical replicate": "2", "viability, normalised (%)": 86.8, "call": "inactive"}
{"Gene": "MST1R (GeneID 4486)", "technical replicate": "3", "viability, normalised (%)": 83.3, "call": "inactive"}
{"Gene": "UHMK1 (GeneID 127933)", "technical replicate": "1", "viability, normalised (%)": 72.3, "call": "active"}
{"Gene": "UHMK1 (GeneID 127933)", "technical replicate": "2", "viability, normalised (%)": 87.4, "call": "inactive"}
{"Gene": "UHMK1 (GeneID 127933)", "technical replicate": "3", "viability, normalised (%)": 60.4, "call": "active"}
